Reference: the supplement of paper PMC10470496
Counter-ions that a name gives are not always drawn. The list shows a part of the results. Repeats are few or missing, and single values can be far off.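 The three strains are clinical Candida auris isolates from the CDC resistance isolate bank, from clades III, IV and I, grown in RPMI-1640 at 35°C. Growth is background-corrected OD600 relative to vehicle-only wells on the same plate; a hit meant over 50% inhibition in at least two strains plus a plate-corrected B-score above 0.1.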

Assays:
Assay in all cases: growth relative to vehicle control (OD600 ratio) (fraction); higher = less inhibition
Conditions in all cases: 24 h
C. auris AR-384 = test system: C. auris AR-384
C. auris AR-386 = test system: C. auris AR-386
C. auris AR-387 = test system: C. auris AR-387

`COCCCC/C(=N\OCCN)c1ccc(C(F)(F)F)cc1` [Fluvoxamine maleate] showed a growth (C. auris AR-384; 1 µM) of 0.96, a growth (C. auris AR-384; 10 µM) of 1.14 and a growth (C. auris AR-386; 1 µM) of 1.36. It also gave a growth (C. auris AR-386; 10 µM) of 1.3, a growth (C. auris AR-387; 1 µM) of 1.18 and a growth (C. auris AR-387; 10 µM) of 0.96.
For `COc1cc(O)c(C(=O)c2ccccc2)cc1S(=O)(=O)O` [Sulisobenzone], the growth (C. auris AR-384; 1 µM) was 0.7, the growth (C. auris AR-384; 10 µM) was 0.76 and the growth (C. auris AR-386; 1 µM) was 0.69. The growth (C. auris AR-386; 10 µM) was 0.94, the growth (C. auris AR-387; 1 µM) was 0.76 and the growth (C. auris AR-387; 10 µM) was 0.67.
`COc1cc(Nc2ncc(F)c(Nc3ccc4c(n3)N(COP(=O)(O)O)C(=O)C(C)(C)O4)n2)cc(OC)c1OC` [R788 (Fostamatinib) Disodium] gave a growth (C. auris AR-384; 1 µM) of 0.82, a growth (C. auris AR-384; 10 µM) of 0.8 and a growth (C. auris AR-386; 1 µM) of 0.8. It also gave a growth (C. auris AR-386; 10 µM) of 0.74, a growth (C. auris AR-387; 1 µM) of 0.76 and a growth (C. auris AR-387; 10 µM) of 1.03.
In the case of `Oc1cc(O)c(Cl)cn1` [Gimeracil], the growth (C. auris AR-384; 1 µM) is reported as 1.19, the growth (C. auris AR-384; 10 µM) is reported as 0.93 and the growth (C. auris AR-386; 1 µM) is reported as 1.04. The growth (C. auris AR-386; 10 µM) was 0.87, the growth (C. auris AR-387; 1 µM) was 0.87 and the growth (C. auris AR-387; 10 µM) was 0.91.
Compound `C[N+](C)(C)CCCCCC[N+](C)(C)C` [Hexamethonium Dibromide] has a growth (C. auris AR-384; 1 µM) of 0.58, a growth (C. auris AR-384; 10 µM) of 0.67 and a growth (C. auris AR-386; 1 µM) of 0.52. The growth (C. auris AR-386; 10 µM) was 0.93, the growth (C. auris AR-387; 1 µM) was 0.66 and the growth (C. auris AR-387; 10 µM) was 0.72.
For `NC[C@H](O)c1ccc(O)c(O)c1` [Noradrenaline bitartrate monohydrate], the growth (C. auris AR-384; 1 µM) was 1.32, the growth (C. auris AR-384; 10 µM) was 1.12 and the growth (C. auris AR-386; 1 µM) was 0.89. The growth (C. auris AR-386; 10 µM) was 1.04, the growth (C. auris AR-387; 1 µM) was 0.81 and the growth (C. auris AR-387; 10 µM) was 1.1.
`CCC[S+]([O-])c1ccc2[nH]c(NC(=O)OC)nc2c1` (stereo not drawn) [Albendazole Oxide] gave a growth (C. auris AR-384; 1 µM) of 0.76, a growth (C. auris AR-384; 10 µM) of 0.92 and a growth (C. auris AR-386; 1 µM) of 1.03. For the same compound, the growth (C. auris AR-386; 10 µM) was 0.58, the growth (C. auris AR-387; 1 µM) was 0.67 and the growth (C. auris AR-387; 10 µM) was 0.79.
For `CN1CCC(=C2c3ccccc3CC(=O)c3sccc32)CC1` [Ketotifen Fumarate], the growth (C. auris AR-384; 1 µM) was 0.99, the growth (C. auris AR-384; 10 µM) was 1.04 and the growth (C. auris AR-386; 1 µM) was 1. It also gave a growth (C. auris AR-386; 10 µM) of 1.08, a growth (C. auris AR-387; 1 µM) of 1.14 and a growth (C. auris AR-387; 10 µM) of 1.24.
In the case of `CC1=CC(=O)c2ccccc2C1=O` [Menadione], the growth (C. auris AR-384; 1 µM) is reported as 0.97, the growth (C. auris AR-384; 10 µM) is reported as 1.06 and the growth (C. auris AR-386; 1 µM) is reported as 0.99. The growth (C. auris AR-386; 10 µM) was 1.13, the growth (C. auris AR-387; 1 µM) was 0.73 and the growth (C. auris AR-387; 10 µM) was 1.24.
In the case of `CO/N=C(\C(=O)N[C@@H]1C(=O)N2C(C(=O)O)=C(CSc3nnnn3C)CS[C@H]12)c1csc(N)n1` [Cefmenoxime hydrochloride], the growth (C. auris AR-384; 1 µM) is reported as 1.08, the growth (C. auris AR-384; 10 µM) is reported as 1.09 and the growth (C. auris AR-386; 1 µM) is reported as 1.15. For the same compound, the growth (C. auris AR-386; 10 µM) was 0.77, the growth (C. auris AR-387; 1 µM) was 1.19 and the growth (C. auris AR-387; 10 µM) was 1.33.
Compound `Clc1ccc(CSC(Cn2ccnc2)c2ccc(Cl)cc2Cl)cc1` (stereo not drawn) [Sulconazole Nitrate] has a growth (C. auris AR-384; 1 µM) of 0.53, a growth (C. auris AR-384; 10 µM) of 0.37 and a growth (C. auris AR-386; 1 µM) of 1.1. For the same compound, the growth (C. auris AR-386; 10 µM) was 0.57, the growth (C. auris AR-387; 1 µM) was 0.12 and the growth (C. auris AR-387; 10 µM) was 0.01.
Compound `NC(=O)c1cccc2cn(-c3ccc([C@@H]4CCCNC4)cc3)nc12` [Niraparib (MK-4827) tosylate] has a growth (C. auris AR-384; 1 µM) of 0.93, a growth (C. auris AR-384; 10 µM) of 0.76 and a growth (C. auris AR-386; 1 µM) of 1.31. The growth (C. auris AR-386; 10 µM) was 0.63, the growth (C. auris AR-387; 1 µM) was 0.7 and the growth (C. auris AR-387; 10 µM) was 0.66.
In the case of `COc1ccc(C(=O)CC(=O)c2ccc(C(C)(C)C)cc2)cc1` [Avobenzone], the growth (C. auris AR-384; 1 µM) is reported as 1.03, the growth (C. auris AR-384; 10 µM) is reported as 1.02 and the growth (C. auris AR-386; 1 µM) is reported as 1.06. It also gave a growth (C. auris AR-386; 10 µM) of 0.65, a growth (C. auris AR-387; 1 µM) of 1.03 and a growth (C. auris AR-387; 10 µM) of 1.05.
For `S=c1nc[nH]c2nc[nH]c12` [6-Mercaptopurine (6-MP) Monohydrate], the growth (C. auris AR-384; 1 µM) was 0.93, the growth (C. auris AR-384; 10 µM) was 0.87 and the growth (C. auris AR-386; 1 µM) was 0.99. For the same compound, the growth (C. auris AR-386; 10 µM) was 1.1, the growth (C. auris AR-387; 1 µM) was 1 and the growth (C. auris AR-387; 10 µM) was 1.11.
Compound `Cc1ccc(-c2ncc(Cl)cc2-c2ccc(S(C)(=O)=O)cc2)cn1` [Etoricoxib] has a growth (C. auris AR-384; 1 µM) of 0.78, a growth (C. auris AR-384; 10 µM) of 0.81 and a growth (C. auris AR-386; 1 µM) of 0.83. It also gave a growth (C. auris AR-386; 10 µM) of 0.98, a growth (C. auris AR-387; 1 µM) of 0.89 and a growth (C. auris AR-387; 10 µM) of 0.92.
Compound `CN(C)CCOC(c1ccccc1)c1ccccc1` [Diphenhydramine HCl] has a growth (C. auris AR-384; 1 µM) of 0.95, a growth (C. auris AR-384; 10 µM) of 1.33 and a growth (C. auris AR-386; 1 µM) of 0.62. For the same compound, the growth (C. auris AR-386; 10 µM) was 1.07, the growth (C. auris AR-387; 1 µM) was 0.82 and the growth (C. auris AR-387; 10 µM) was 0.82.
Compound `Cc1ccc(Cl)c(Nc2ccccc2C(=O)O)c1Cl` [Meclofenamate Sodium] has a growth (C. auris AR-384; 1 µM) of 1.12, a growth (C. auris AR-384; 10 µM) of 1.17 and a growth (C. auris AR-386; 1 µM) of 0.78. For the same compound, the growth (C. auris AR-386; 10 µM) was 1.06, the growth (C. auris AR-387; 1 µM) was 0.75 and the growth (C. auris AR-387; 10 µM) was 0.73.
Work on `CCCC(=O)Nc1ncnc2c1ncn2[C@@H]1O[C@@H]2COP(=O)(O)O[C@H]2[C@H]1OC(=O)CCC` [Dibutyryl-cAMP (Bucladesine)] yielded a growth (C. auris AR-384; 1 µM) of 0.83, a growth (C. auris AR-384; 10 µM) of 0.73 and a growth (C. auris AR-386; 1 µM) of 0.78. The growth (C. auris AR-386; 10 µM) was 0.77, the growth (C. auris AR-387; 1 µM) was 1 and the growth (C. auris AR-387; 10 µM) was 0.98.
For `Oc1ncnc2[nH]ncc12` [Allopurinol], the growth (C. auris AR-384; 1 µM) was 0.81, the growth (C. auris AR-384; 10 µM) was 0.97 and the growth (C. auris AR-386; 1 µM) was 0.81. The growth (C. auris AR-386; 10 µM) was 0.64, the growth (C. auris AR-387; 1 µM) was 0.8 and the growth (C. auris AR-387; 10 µM) was 1.12.
`CN[C@@H]1[C@@H](O)[C@@H](O[C@@H]2[C@@H](O)[C@H](O[C@H]3OC(CN)=CC[C@H]3N)[C@@H](N)C[C@H]2N)OC[C@]1(C)O` [Sisomicin sulfate] was tested, and the growth (C. auris AR-384; 1 µM) was 1.23, the growth (C. auris AR-384; 10 µM) was 1.27 and the growth (C. auris AR-386; 1 µM) was 1.07. It also gave a growth (C. auris AR-386; 10 µM) of 1.4, a growth (C. auris AR-387; 1 µM) of 0.93 and a growth (C. auris AR-387; 10 µM) of 1.12.
For `CCC[C@@H]1C[C@@H](C(=O)N[C@@H]([C@H]2O[C@H](SC)[C@H](O)[C@@H](O)[C@H]2O)[C@H](C)Cl)N(C)C1` [Clindamycin HCl], the growth (C. auris AR-384; 1 µM) was 1.02, the growth (C. auris AR-384; 10 µM) was 1.11 and the growth (C. auris AR-386; 1 µM) was 1.17. For the same compound, the growth (C. auris AR-386; 10 µM) was 1.48, the growth (C. auris AR-387; 1 µM) was 1.22 and the growth (C. auris AR-387; 10 µM) was 1.49.
`Clc1cccc(Cl)c1NC1=NCCN1` [Clonidine HCl] gave a growth (C. auris AR-384; 1 µM) of 0.99, a growth (C. auris AR-384; 10 µM) of 1.38 and a growth (C. auris AR-386; 1 µM) of 1.04. The growth (C. auris AR-386; 10 µM) was 1.25, the growth (C. auris AR-387; 1 µM) was 0.96 and the growth (C. auris AR-387; 10 µM) was 0.93.
For `CNC[C@H](O)c1ccc(O)c(O)c1` [Epinephrine HCl], the growth (C. auris AR-384; 1 µM) was 0.79, the growth (C. auris AR-384; 10 µM) was 0.88 and the growth (C. auris AR-386; 1 µM) was 0.92. It also gave a growth (C. auris AR-386; 10 µM) of 0.78, a growth (C. auris AR-387; 1 µM) of 1.06 and a growth (C. auris AR-387; 10 µM) of 1.02.
